Data set [1] can be described thus: Apparent permeability across human Caco2 cells. To be noted: Caco-2. A general note: Caco-2 cells form a polarised layer with tight junctions and transporters.
Data set [2] can be described thus: Distribution coefficient, log D of the compound at pH 7.4. To be noted: octanol/water.

Structures are written as SMILES.

The term Papp denotes the rate of passage across a membrane or cell layer, normalised by area and donor concentration. As a reminder, the logD is lipophilicity at a set pH, counting ionised and neutral species.

For the molecule `CS(=O)(=O)c1ccc([C@@H](C[C@H]2CCC(=O)C2)C(=O)Nc2cnccn2)cc1Cl` [PIRAGLIATIN], the Papp in data set [1] was determined as 1.6 ×10⁻⁶ cm/s. The molecule also registered a logD in data set [2] of 1.45.
